PubChem BioAssay AID504764 | Drosophila RNAi Screening Center, 2011
In all, the deposit lists about 22,000 reagents; below is an unselected part of those that have a named target and a result. Over the whole deposit, 403 (1.9%) got an active call. 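Unnormalised raw counts per well; ratio z-scores behind the hit calls and whether each hit raises or lowers signal are not deposited.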 A plus sign joins genes that one reagent is predicted to hit. Not stated in the record: the amount of reagent.

- Assay: 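Genes whose knock-down alters Notch-dependent transcription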 (primary screen)
- Cell system: Drosophila Kc167 cells
- Knock-down reagent: long dsRNA against Drosophila genes
- Time to read-out: about 5 days (4 days dsRNA, then 24 h after transfection)
- Conditions: transfection of constitutively active membrane-tethered Notch lacking the extracellular domain, read 24 h later
- Measurement: 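Firefly luciferase from an E(spl)m3 reporter with active Notch, plus control-promoter and uninduced reporter wells for normalisation; unnormalised counts, duplicate wells a and b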
- Scale: induced reporter light, run 1, well a and induced reporter light, run 1, well b: higher = more light from the Notch target reporter with active Notch; control promoter light, run 1, well a and control promoter light, run 1, well b: higher = more light from the viral control promoter (cell number, transfection, viability); uninduced reporter light, run 1, well a: higher = more light from the Notch target reporter without active Notch
- Call rule: 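Hit if the duplicate-averaged log2 ratio of induced to control-promoter light gives a plate-wise z beyond ±2, or induced to uninduced beyond ±1.8; weak-control or discordant-duplicate wells dropped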
- Calls: active = modifier hit (raised or lowered Notch signal); inactive = not a hit

{"Target gene":"CG7966","dsRNA":"DRSC16356","induced reporter light, run 1, well a":1.65e5,"induced reporter light, run 1, well b":1.25e5,"control promoter light, run 1, well a":88585,"control promoter light, run 1, well b":83080,"uninduced reporter light, run 1, well a":11405,"call":"inactive"}
{"Target gene":"CG2736","dsRNA":"DRSC04314","induced reporter light, run 1, well a":2.07e5,"induced reporter light, run 1, well b":1.96e5,"control promoter light, run 1, well a":1.64e5,"control promoter light, run 1, well b":1.87e5,"uninduced reporter light, run 1, well a":15532,"call":"inactive"}
{"Target gene":"su(f) (suppressor of forked)","dsRNA":"DRSC20907","induced reporter light, run 1, well a":50915,"induced reporter light, run 1, well b":55040,"control promoter light, run 1, well a":51860,"control promoter light, run 1, well b":52450,"uninduced reporter light, run 1, well a":5970,"call":"inactive"}
{"Target gene":"Yeti","dsRNA":"DRSC21138","induced reporter light, run 1, well a":29630,"induced reporter light, run 1, well b":23525,"control promoter light, run 1, well a":37555,"control promoter light, run 1, well b":43290,"uninduced reporter light, run 1, well a":2555,"call":"inactive"}
{"Target gene":"CG3168","dsRNA":"DRSC18287","induced reporter light, run 1, well a":2.77e5,"induced reporter light, run 1, well b":2.20e5,"control promoter light, run 1, well a":2.81e5,"control promoter light, run 1, well b":2.90e5,"uninduced reporter light, run 1, well a":13988,"call":"inactive"}
{"Target gene":"Ugt35C1 (UDP-glycosyltransferase family 35 member C1)","dsRNA":"DRSC16080","induced reporter light, run 1, well a":14525,"induced reporter light, run 1, well b":11720,"control promoter light, run 1, well a":17240,"control promoter light, run 1, well b":14910,"uninduced reporter light, run 1, well a":725,"call":"inactive"}

Part of the list above, set out differently:
Target gene | dsRNA | induced reporter light, run 1, well a | induced reporter light, run 1, well b | control promoter light, run 1, well a | control promoter light, run 1, well b | uninduced reporter light, run 1, well a | call
CG3168 | DRSC18287 | 2.77e5 | 2.20e5 | 2.81e5 | 2.90e5 | 13988 | inactive
Ugt35C1 (UDP-glycosyltransferase family 35 member C1) | DRSC16080 | 14525 | 11720 | 17240 | 14910 | 725 | inactive

The listing continues.
{"Target gene":"CG13722","dsRNA":"DRSC08331","induced reporter light, run 1, well a":1.85e5,"induced reporter light, run 1, well b":2.05e5,"control promoter light, run 1, well a":2.04e5,"control promoter light, run 1, well b":2.16e5,"uninduced reporter light, run 1, well a":9280,"call":"inactive"}
{"Target gene":"CG13722","dsRNA":"DRSC21616","call":"inactive"}
{"Target gene":"CG15771","dsRNA":"DRSC18077","induced reporter light, run 1, well a":92335,"induced reporter light, run 1, well b":96850,"control promoter light, run 1, well a":1.23e5,"control promoter light, run 1, well b":1.66e5,"uninduced reporter light, run 1, well a":7765,"call":"inactive"}
{"Target gene":"CG17159 + CG17162","dsRNA":"DRSC20899","induced reporter light, run 1, well a":68175,"induced reporter light, run 1, well b":89675,"control promoter light, run 1, well a":98205,"control promoter light, run 1, well b":1.20e5,"uninduced reporter light, run 1, well a":11420,"call":"inactive"}
{"Target gene":"CG17159 + CG17162","dsRNA":"DRSC20900","induced reporter light, run 1, well a":93390,"induced reporter light, run 1, well b":97290,"control promoter light, run 1, well a":1.50e5,"control promoter light, run 1, well b":1.41e5,"uninduced reporter light, run 1, well a":11510,"call":"inactive"}
{"Target gene":"CG6937","dsRNA":"DRSC16140","induced reporter light, run 1, well a":1.96e5,"induced reporter light, run 1, well b":1.37e5,"control promoter light, run 1, well a":1.89e5,"control promoter light, run 1, well b":1.75e5,"uninduced reporter light, run 1, well a":10325,"call":"inactive"}
{"Target gene":"simj (simjang)","dsRNA":"DRSC10942","induced reporter light, run 1, well a":96575,"induced reporter light, run 1, well b":1.06e5,"control promoter light, run 1, well a":62250,"control promoter light, run 1, well b":36665,"uninduced reporter light, run 1, well a":10650,"call":"inactive"}
{"Target gene":"E(var)3-9 (Enhancer of variegation 3-9)","dsRNA":"DRSC14451","induced reporter light, run 1, well a":65315,"induced reporter light, run 1, well b":85980,"control promoter light, run 1, well a":63730,"control promoter light, run 1, well b":41935,"uninduced reporter light, run 1, well a":8215,"call":"inactive"}
{"Target gene":"Tsf2 (Transferrin 2)","dsRNA":"DRSC09751","induced reporter light, run 1, well a":1.19e5,"induced reporter light, run 1, well b":92740,"control promoter light, run 1, well a":82060,"control promoter light, run 1, well b":43970,"uninduced reporter light, run 1, well a":9250,"call":"inactive"}
{"Target gene":"CG43996","dsRNA":"DRSC19456","induced reporter light, run 1, well a":84185,"induced reporter light, run 1, well b":68985,"control promoter light, run 1, well a":80035,"control promoter light, run 1, well b":1.04e5,"uninduced reporter light, run 1, well a":10295,"call":"inactive"}
{"Target gene":"CG43996","dsRNA":"DRSC19457","induced reporter light, run 1, well a":95140,"induced reporter light, run 1, well b":74755,"control promoter light, run 1, well a":95930,"control promoter light, run 1, well b":96980,"uninduced reporter light, run 1, well a":10455,"call":"inactive"}
{"Target gene":"Pka-C2 (Protein kinase, cAMP-dependent, catalytic subunit 2)","dsRNA":"DRSC16790","induced reporter light, run 1, well a":66065,"induced reporter light, run 1, well b":59445,"control promoter light, run 1, well a":1.28e5,"control promoter light, run 1, well b":1.27e5,"uninduced reporter light, run 1, well a":6230,"call":"inactive"}
